Results reported in patent US20250174299 (published 2025).

Assay: peptide made by a vendor
Details: whole synthesis

## CCTSPGGDQFCRSRW TQWNLVIWCQCCVR
  purity (crude or final not stated): 26%

End groups of sequences in plain letters are not given here.
